Data from PubChem BioAssay (Tox21).
Values joined by “and” are separate entries in the source; they are usually repeats but may differ in a detail not shown here. Equal entries are not always repeated. Inconclusive results, whose numbers are uncertain, are shown with a selection of clear calls. Where the call is inconclusive, the potency comes from a doubtful curve fit. Active and inactive are the calls of the source. Calls come from the whole dose curve.

biological target: Beta-2 adrenergic receptor (Homo sapiens) (UniProt P07550); experiment: Adrenergic beta2 receptor (ADRB2) small molecule agonists, cell-based qHTS assay (AID 1963593); settings: CHO-ADRB2 cells, cAMP HTRF, 30 min; activation: at 92.4 µM (top of the series) unless noted;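 for activation: CHO cells stably overexpressing human ADRB2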
Outline: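 CHO cells stably over-expressing ADRB2 were plated overnight at 37C, then dosed with compounds plus a stimulation mix containing 100uM IBMX and 25uM Ro-20-1724 for 0.5hr at room temperature. cAMP was measured by HTRF competition, 1hr.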
% is set by controls: 0 for no effect and ±100 for the full control effect; potency is the fitted concentration of half-maximal effect.

Row | Structure (SMILES) | activation | Potency
1 | O=C(CCBr)N1CCN(C(=O)CCBr)CC1 | inconclusive: 19.7% [at 42.5 µM] | 
2 | CCN(CCC#N)c1ccccc1 | inactive: -6.68% | 
3 | N#Cc1ccccc1O | inactive: 17.8% | 
4 | CS(=O)(=O)c1ccc([C@@H](CC2CCCC2)C(=O)Nc2cnccn2)cc1Cl | inactive: 14.7% | 
5 | CC(=O)N[C@@H](Cc1ccc(O)cc1)C(=O)O | inactive: -13.7% [at 42.5 µM] | 
6 | CC(=O)N(c1onc(C)c1C)S(=O)(=O)c1ccc(N)cc1 | inactive: 22.1% [at 42.5 µM] | 
7 | CC(=O)c1ccccc1[N+](=O)[O-] | inconclusive: -4.2% | 
8 | CCOCC(C)O (stereo not given) | inactive: 1.01% | 
9 | COc1cc(Cc2cnc(N)nc2N)cc(OC)c1OC |  | inactive
10 | O=Cc1c(Cl)cccc1Cl | inconclusive: 1.42% | 
11 | CO[Si](C)(OC)OC |  | inconclusive: 2.66 µM [inhibitor, single point]
12 | Nc1c2c(nc3ccccc13)CCCC2O (stereo not given) | inconclusive: -44.3% [at 42.5 µM] | 
13 | CC(C)(CCl)c1ccccc1 | inactive: -3.33% | 
14 | CN1[C@@H]2CC[C@@H]1CC(OC(=O)C(CO)c1ccccc1)C2 (stereo not given in full) |  | inconclusive: 2.61 µM [inhibitor, single point]
15 | O=C(CCCN1CCC(O)(c2ccc(Cl)cc2)CC1)c1ccc(F)cc1 | inactive: -83.9% | 
16 | Cc1ncc(CSSCc2cnc(C)c(O)c2CO)c(CO)c1O | inactive: 18.8% [at 42.5 µM] | 
17 | CN1C(CCl)Nc2cc(Cl)c(S(N)(=O)=O)cc2S1(=O)=O (stereo not given) |  | inconclusive: 13.3 µM [inhibitor, single point]
18 | CCCCCCCCSCCO | inactive: 14.6% | 
19 | CCc1ccccc1 | inactive: -10.6% | 
20 | CO[Si](CCCNCCC[Si](OC)(OC)OC)(OC)OC | inactive: -19.8% | 

Row | Structure (SMILES) | activation | Potency
21 | CC1(C)C(O)C(C)(C)C1O (stereo not given) | inactive: -11.4% | 
22 | CCCCC(CC)COC(=O)c1ccccc1O (stereo not given) | inconclusive: 18.5% [at 42.5 µM] | 
23 | CCCCCCCCCCCCSC | inconclusive: -15.9% | 
24 | NCc1ccccc1Sc1ccccc1CO | inconclusive: 6.6% [at 42.5 µM] | 
25 | COC(OC)OC | inconclusive: 7.62% | 
26 | Nc1ccc(F)cc1 | inconclusive: 4.71% | 
27 | CC(C)CC(C)(N)C#N (stereo not given) | inconclusive: 16.8% | 
28 | NC(=O)NC(N)=O | inconclusive: 13% and inconclusive: 1.21% | 
29 | Nc1nc(-c2ccccc2)cs1 | inconclusive: -17.9% | 
30 | C1CCN2C[C@@H]3C[C@@H](CN4CCCC[C@@H]34)[C@H]2C1 | inconclusive: -4.86% [at 42.5 µM] | 
31 | C=C[Si](OC(=C)C)(OC(=C)C)OC(=C)C | inconclusive: 0.684% | 
32 | CCOC(OCC)OCC | inactive: 4.19% | 
33 | O=C(NCCCN1CCOCC1)c1ccc(Cl)cc1 | inconclusive: 12.9% [at 42.5 µM] | 
34 | N=C(N)c1ccccc1 | inactive: 1.58% | 
35 | CCCCOC(=O)CCS | inactive: -9.19% | 
36 | C[Si]1(C)N[Si](C)(C)N[Si](C)(C)N1 | inconclusive: 17.5% | 
37 | CCCCCCCC1CCCC1=O (stereo not given) | inconclusive: -5.15% | 
38 | CCC(C)C(=O)OCCc1ccccc1 (stereo not given) | inactive: -30.7% | 
39 | CN1CCN(C(c2ccccc2)c2ccccc2)CC1 | inconclusive: -1.9% [at 42.5 µM] | 
40 | CC(=O)Nc1ncc([N+](=O)[O-])s1 | inactive: -4.38% [at 42.5 µM] | 

Looked up above.
Value of CCC(C)C(=O)OCCc1ccccc1 (stereo not given) under activation: inactive: -30.7%
Value of CN1CCN(C(c2ccccc2)c2ccccc2)CC1 under activation: inconclusive: -1.9% [at 42.5 µM]
